Results published in paper PMC12847774, “SERPINB3 enhances NPM1 sumoylation via inhibiting SENP3’s activity and promotes lung tumorigenesis” (Cell Death & Disease, 2025).

Amino acid sequences for entries named in this document (tags omitted).
UniProt P06748: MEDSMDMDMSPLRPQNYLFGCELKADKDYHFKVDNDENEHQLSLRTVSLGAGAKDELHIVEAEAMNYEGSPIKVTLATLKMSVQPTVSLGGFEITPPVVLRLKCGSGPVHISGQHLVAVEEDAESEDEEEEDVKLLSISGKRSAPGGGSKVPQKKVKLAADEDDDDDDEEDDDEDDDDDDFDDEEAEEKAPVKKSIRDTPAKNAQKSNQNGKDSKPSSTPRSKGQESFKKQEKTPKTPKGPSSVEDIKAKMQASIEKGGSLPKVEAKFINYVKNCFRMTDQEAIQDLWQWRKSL

Molecular target: T1, Flag-BirA-SERPINB3 (UniProt P29508)
T1 sequence: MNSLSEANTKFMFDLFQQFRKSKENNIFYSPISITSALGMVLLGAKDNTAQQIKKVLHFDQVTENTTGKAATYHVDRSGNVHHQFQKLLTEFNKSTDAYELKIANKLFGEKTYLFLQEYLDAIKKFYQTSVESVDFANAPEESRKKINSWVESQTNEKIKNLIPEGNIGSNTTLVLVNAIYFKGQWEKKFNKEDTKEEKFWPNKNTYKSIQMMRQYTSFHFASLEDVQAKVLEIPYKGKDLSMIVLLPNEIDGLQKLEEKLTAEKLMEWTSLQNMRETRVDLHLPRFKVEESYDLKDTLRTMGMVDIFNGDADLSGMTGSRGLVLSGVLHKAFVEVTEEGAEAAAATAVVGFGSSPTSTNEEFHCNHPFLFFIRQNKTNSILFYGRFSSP
Test: proximity labelling; Bio-ID in PC9 cells stably expressing Flag-BirA-SERPINB3, 50 uM biotin for 24 h; RIPA lysis, streptavidin Dynabeads, mass spectrometry

In the case of “nucleophosmin (NPM1), endogenous (from UniProt P06748 1-294)”, the binding is reported as “binds”.

These are yes or no findings as the source states them, for the method shown. In cells and extracts the contact can be indirect. Here binding means that the protein was enriched with, or labelled near, the bait; the list need not be complete. Tags and fused reporters may be left off the sequences shown.
